Laboratory results from PMC4305288.
These are yes or no findings as the source states them, for the method shown. For some assays here: Binding calls can cover weak binding; strength is not graded here. For some assays here: In cells and extracts the contact can be indirect. For some assays here: Sequences can lack the tags named with a protein.

Chains of the proteins cited; added tags and fusions are not shown. Lines headed by an entry give the natural chain unless they say otherwise; changes in a name come on top.
UniProt Q4PT31: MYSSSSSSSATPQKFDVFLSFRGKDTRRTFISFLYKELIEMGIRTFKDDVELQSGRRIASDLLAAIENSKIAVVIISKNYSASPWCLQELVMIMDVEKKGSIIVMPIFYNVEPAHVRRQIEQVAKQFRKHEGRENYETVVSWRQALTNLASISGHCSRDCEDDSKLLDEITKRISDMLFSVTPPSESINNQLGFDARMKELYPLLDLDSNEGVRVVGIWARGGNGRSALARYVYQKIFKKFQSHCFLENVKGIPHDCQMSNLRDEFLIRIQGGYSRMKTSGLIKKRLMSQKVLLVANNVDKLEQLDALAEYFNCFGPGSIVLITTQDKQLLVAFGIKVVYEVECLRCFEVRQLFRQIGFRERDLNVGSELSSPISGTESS

What was measured:
[1] = biological target: T1, EXO70B1-pGBKT7 (Arabidopsis thaliana) (UniProt Q9FGH9); assay: two-hybrid; … GAL4 Two-Hybrid System 3; EXO70B1-pGBKT7 as bait, preys in pGADT7; S. cerevisiae AH109; growth on SD/-Ade/-His/-Leu/-Trp at 28°C
T1 sequence: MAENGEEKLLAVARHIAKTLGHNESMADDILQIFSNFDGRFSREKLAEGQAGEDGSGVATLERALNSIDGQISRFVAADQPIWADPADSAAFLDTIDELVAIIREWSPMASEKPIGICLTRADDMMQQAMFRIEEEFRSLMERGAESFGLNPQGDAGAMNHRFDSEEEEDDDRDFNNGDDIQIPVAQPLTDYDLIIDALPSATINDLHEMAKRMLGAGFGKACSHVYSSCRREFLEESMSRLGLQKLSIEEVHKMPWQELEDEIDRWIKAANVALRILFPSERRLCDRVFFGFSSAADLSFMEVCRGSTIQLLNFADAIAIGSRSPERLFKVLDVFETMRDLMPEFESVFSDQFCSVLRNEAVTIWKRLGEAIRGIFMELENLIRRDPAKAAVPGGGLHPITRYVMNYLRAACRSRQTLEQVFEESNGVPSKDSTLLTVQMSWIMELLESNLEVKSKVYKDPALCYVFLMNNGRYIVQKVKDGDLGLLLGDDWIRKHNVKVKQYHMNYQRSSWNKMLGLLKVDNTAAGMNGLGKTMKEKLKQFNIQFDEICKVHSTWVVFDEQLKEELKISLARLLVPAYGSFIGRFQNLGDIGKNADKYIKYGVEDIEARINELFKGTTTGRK

[2] = biological target: pEG202:TN2 (Arabidopsis thaliana) (UniProt Q4PT31); assay: two-hybrid; LexA system; Gateway-modified pEG202 (baits, EGY48) and pJG4-5 (prey, RFY206 with LacZ reporter pSH18-34); mated diploids spotted on SD-HUW with X-gal
[3] = biological target: TN2-YFP^N (Arabidopsis thaliana); assay: split reporter; BiFC with YFP^N and YFP^C fusions co-infiltrated by Agrobacterium GV3101 into N. benthamiana leaves; YFP fluorescence by confocal microscopy after 48 hr
[4] = biological target: TN2-Myc (Arabidopsis thaliana); assay: co-IP; transient co-expression in N. benthamiana leaves; total protein in NB1 buffer; immunoprecipitation with anti-Myc or anti-HA antibody and protein G agarose at 4 °C; washed 4 times with PBS; immunoblot

Question: Which binding [1] does the source give for “PEN1Δ: PEN1 without transmembrane domain (Arabidopsis thaliana) (domain or fragment)” here?
Answer: The binding was “no binding”.

B1: pJG4-5:EXO70B1 (protein, UniProt Q9FGH9 1-624)
chain: T1 sequence
Question: For B1, which binding [2] is on record?
Answer: The binding was “binds”.

B2: EXO70B1-YFP^C (protein, UniProt Q9FGH9 1-624)
chain: T1 sequence
Question: With B2 as the molecule, how does the binding [3] read?
Answer: The binding was “binds”.

B3: EXO70B1-FLAG (protein, UniProt Q9FGH9 1-624)
chain: T1 sequence
Question: With B3 as the molecule, how does the binding [4] read?
Answer: Its binding is “binds”.

B4: SNAP33-YFP^C (protein, UniProt Q9S7P9 1-300)
chain: MFGLRKSPANLPKHNSVDLKSSKPNPFDSDDESDNKHTLNPSKRTTSEPSLADMTNPFGGERVQKGDSSSSKQSLFSNSKYQYKNNFRDSGGIENQSVQELEGYAVYKAEETTKSVQGCLKVAEDIRSDATRTLVMLHDQGEQITRTHHKAVEIDHDLSRGEKLLGSLGGMFSKTWKPKKTRPINGPVVTRDDSPTRRVNHLEKREKLGLNSAPRGQSRTREPLPESADAYQRVEMEKAKQDDGLSDLSDILGELKNMAVDMGSEIEKQNKGLDHLHDDVDELNFRVQQSNQRGRRLLGK
Question: With B4 as the molecule, how does the binding [3] read?
Answer: Its binding is “no binding”.
